This note sets out measurements from PMC13156314.

This experiment has as its target USP18-Flag truncation mutant: ubiquitin carboxyl-terminal hydrolase (UCH) domain (human). As to the kind of experiment: co-IP; tagged bait (anti-Flag or anti-Myc) from transfected SUNE1 or HEK293T lysates; co-transfected tagged or endogenous partner found by western blot. (In general: A western blot detects proteins with antibodies after separation by electrophoresis.)

These are yes or no findings as the source states them, for the method shown. Binding seen in cells or lysates may run through a third protein. Binding calls can cover weak binding; strength is not graded here.

B1: TRIM29 (endogenous) (protein, UniProt Q14134 1-588)
chain: MEAADASRSNGSSPEARDARSPSGPSGSLENGTKADGKDAKTTNGHGGEAAEGKSLGSALKPGEGRSALFAGNEWRRPIIQFVESGDDKNSNYFSMDSMEGKRSPYAGLQLGAAKKPPVTFAEKGELRKSIFSESRKPTVSIMEPGETRRNSYPRADTGLFSRSKSGSEEVLCDSCIGNKQKAVKSCLVCQASFCELHLKPHLEGAAFRDHQLLEPIRDFEARKCPVHGKTMELFCQTDQTCICYLCMFQEHKNHSTVTVEEAKAEKETELSLQKEQLQLKIIEIEDEAEKWQKEKDRIKSFTTNEKAILEQNFRDLVRDLEKQKEEVRAALEQREQDAVDQVKVIMDALDERAKVLHEDKQTREQLHSISDSVLFLQEFGALMSNYSLPPPLPTYHVLLEGEGLGQSLGNFKDDLLNVCMRHVEKMCKADLSRNFIERNHMENGGDHRYVNNYTNSFGGEWSAPDTMKRYSMYLTPKGGVRTSYQPSSPGRFTKETTQKNFNNLYGTKGNYTSRVWEYSSSIQNSDNDLPVVQGSSSFSLKGYPSLMRSQSPKAQPQTWKSGKQTMLSHYRPFYVNKGNGIGSNEAP
Regarding B1, the binding result is “binds”.
